Reference: patent US20240365783A1, “HERBICIDAL MALONAMIDES” (BASF SE, priority 2021, published 2024)
Some entries share one result that the patent states for a list of compounds. At least one compound was matched to its structure with a doubt left. Some compounds share one range, which may span the group rather than tell each member.

How the values were obtained:
Type in all cases: in vivo
[1] = tested on: Amaranthus retroflexus (AMARE); assay: greenhouse pre-emergence herbicidal test, AMARE; conditions: pre-emergence method, application rate 0.250 kg/ha, scale from 0 to 100
[2] = tested on: Echinocloa crus-galli (ECHCG); assay: greenhouse pre-emergence herbicidal test, ECHCG; conditions: pre-emergence method, application rate 0.250 kg/ha, scale from 0 to 100
Setaria faberi (SETFA) = assay: greenhouse pre-emergence herbicidal test, SETFA; conditions: pre-emergence method, application rate 0.250 kg/ha, scale from 0 to 100
[3] = tested on: Abutilon theophrasti (ABUTH); assay: greenhouse post-emergence herbicidal test, ABUTH; conditions: post-emergence method, application rate 0.250 kg/ha, scale from 0 to 100
Excerpt: (§1) The culture containers used were plastic flowerpots containing loamy sand with approximately 3.0% of humus as the substrate. The seeds of the test plants were sown separately for each species.
(§2) For the post-emergence treatment, the test plants were first grown to a height of 3 to 15 cm, depending on the plant habit, and only then treated with the active ingredients which had been suspended or emulsified in water. For this purpose, the test plants were either sown directly and grown in the same containers, or they were first grown separately as seedlings and transplanted into the test containers a few days prior to treatment.
(§3) Depending on the species, the test plants were kept at 10-25° C. or 20-35° C., respectively.
(§4) The test period extended over 2 to 4 weeks. During this time, the test plants were tended, and their response to the individual treatments was evaluated.
(§5) Evaluation was carried out using a scale from 0 to 100. 100 means no emergence of the test plants, or complete destruction of at least the aerial moieties, and 0 means no damage, or normal course of growth. A good herbicidal activity is given at values of 70 to <90 and a very good herbicidal activity is given at values of 90 to 100.
(§6) The test plants used in the greenhouse experiments were of the following species: […]

[4] = tested on: Alopercurus myosuroides (ALOMY); assay: greenhouse post-emergence herbicidal test, ALOMY; conditions: post-emergence method, application rate 0.250 kg/ha, scale from 0 to 100
Excerpt: as §1, §2, §3, §4, §5, §6

[5] = tested on: Echinocloa crus-galli (ECHCG); assay: greenhouse post-emergence herbicidal test, ECHCG; conditions: post-emergence method, application rate 0.250 kg/ha, scale from 0 to 100
[6] = tested on: Amaranthus retroflexus (AMARE); assay: greenhouse post-emergence herbicidal test, AMARE; conditions: post-emergence method, application rate 0.250 kg/ha, scale from 0 to 100
[7] = tested on: Digitaria sanguinalis (DIGSA); assay: greenhouse pre-emergence herbicidal test, DIGSA; conditions: pre-emergence method, application rate 0.250 kg/ha, scale from 0 to 100
Excerpt: as §1
(§7) For the pre-emergence treatment, the active ingredients, which had been suspended or emulsified in water, were applied directly after sowing by means of finely distributing nozzles. The containers were irrigated gently to promote germination and growth and subsequently covered with transparent plastic hoods until the test plants had rooted. This cover caused uniform germination of the test plants, unless this had been impaired by the active ingredients.
as §3, §4, §5, §6

[8] = tested on: Lolium multiflorum (LOLMU); assay: greenhouse pre-emergence herbicidal test, LOLMU; conditions: pre-emergence method, application rate 0.250 kg/ha, scale from 0 to 100
Excerpt: as §1, §7, §3, §4, §5, §6

Setaria viridis (SETVI) = assay: greenhouse pre-emergence herbicidal test, SETVI; conditions: pre-emergence method, application rate 0.250 kg/ha, scale from 0 to 100
Avena fatua (AVEFA) = assay: greenhouse post-emergence herbicidal test, AVEFA; conditions: post-emergence method, application rate 0.250 kg/ha, scale from 0 to 100
Excerpt: as §1, §2, §3, §4, §5, §6

| SMILES | herbicidal activity against AMARE [1] | herbicidal activity against ECHCG [2] | herbicidal activity against SETFA (Setaria faberi (SETFA)) | herbicidal activity against ABUTH [3] | herbicidal activity against ALOMY [4] | herbicidal activity against ECHCG [5] | herbicidal activity against AMARE [6] | herbicidal activity against DIGSA [7] | herbicidal activity against LOLMU [8] | herbicidal activity against SETVI (Setaria viridis (SETVI)) | herbicidal activity against AVEFA (Avena fatua (AVEFA)) |
| --- | --- | --- | --- | --- | --- | --- | --- | --- | --- | --- | --- |
| COC(=O)C1C=CC(NC(=O)C(C)(C)C(=O)Nc2cc(Cl)cc(Cl)c2)C1 (centres unmarked) [Compound 1.2] | good (A good herbicidal activity is given at values of 70 to <90) | good (A good herbicidal activity is given at values of 70 to <90) | very good (a very good herbicidal activity is given at values of 90 to 100) | very good (a very good herbicidal activity is given at values of 90 to 100) | very good (a very good herbicidal activity is given at values of 90 to 100) | very good (a very good herbicidal activity is given at values of 90 to 100) |  |  |  |  |  |
| COC(=O)C1C=CC(NC(=O)C(C)(C)C(=O)Nc2cccc(F)c2)C1 (centres unmarked) [Compound 1.12] |  | good (A good herbicidal activity is given at values of 70 to <90) | good (A good herbicidal activity is given at values of 70 to <90) |  | good (A good herbicidal activity is given at values of 70 to <90) | very good (a very good herbicidal activity is given at values of 90 to 100) | good (A good herbicidal activity is given at values of 70 to <90) |  |  |  |  |
| COC(=O)C1C=CC(NC(=O)C(C)(C)C(=O)Nc2cc(F)cc(F)c2)C1 (centres unmarked) [Compound 1.24] |  |  |  |  | good (A good herbicidal activity is given at values of 70 to <90) | very good (a very good herbicidal activity is given at values of 90 to 100) |  | very good (a very good herbicidal activity is given at values of 90 to 100) | very good (a very good herbicidal activity is given at values of 90 to 100) | very good (a very good herbicidal activity is given at values of 90 to 100) | very good (a very good herbicidal activity is given at values of 90 to 100) |
| COC(=O)C1C=CC(NC(=O)C(C)(C)C(=O)Nc2cccc(Cl)c2)C1 (centres unmarked) [Compound 1.15] |  | very good (a very good herbicidal activity is given at values of 90 to 100) |  |  | very good (a very good herbicidal activity is given at values of 90 to 100) | very good (a very good herbicidal activity is given at values of 90 to 100) | very good (a very good herbicidal activity is given at values of 90 to 100) |  |  |  |  |
| CC(C)(C(=O)Nc1cc(Cl)cc(Cl)c1)C(=O)N[C@H]1C=C[C@@H](C(=O)O)C1 (relative stereo) [Compound 1.80] |  |  |  |  | very good (a very good herbicidal activity is given at values of 90 to 100) |  | very good (a very good herbicidal activity is given at values of 90 to 100) |  |  |  | very good (a very good herbicidal activity is given at values of 90 to 100) |
| CC(C)(C(=O)Nc1cccc(OC(F)(F)F)c1)C(=O)N[C@H]1C=C[C@@H](C(=O)O)C1 (relative stereo) [Compound 1.79] |  |  |  |  | very good (a very good herbicidal activity is given at values of 90 to 100) |  | very good (a very good herbicidal activity is given at values of 90 to 100) |  | very good (a very good herbicidal activity is given at values of 90 to 100) |  | very good (a very good herbicidal activity is given at values of 90 to 100) |
| COC(=O)C1C=CC(NC(=O)C(C)(C)C(=O)Nc2cccc(OC(F)(F)F)c2)C1 (centres unmarked) [Compound 1.9] | good (A good herbicidal activity is given at values of 70 to <90) | very good (a very good herbicidal activity is given at values of 90 to 100) | very good (a very good herbicidal activity is given at values of 90 to 100) | very good (a very good herbicidal activity is given at values of 90 to 100) |  | very good (a very good herbicidal activity is given at values of 90 to 100) |  |  |  |  | very good (a very good herbicidal activity is given at values of 90 to 100) |
| COC(=O)C1C=CC(NC(=O)C(C)(C)C(=O)Nc2cc(F)cc(Cl)c2)C1 (centres unmarked) [Compound 1.18] |  | very good (a very good herbicidal activity is given at values of 90 to 100) | very good (a very good herbicidal activity is given at values of 90 to 100) | very good (a very good herbicidal activity is given at values of 90 to 100) | very good (a very good herbicidal activity is given at values of 90 to 100) | very good (a very good herbicidal activity is given at values of 90 to 100) |  |  |  |  |  |
| CC(C)(C(=O)Nc1cc(F)cc(Cl)c1)C(=O)N[C@H]1C=C[C@@H](C(=O)O)C1 (relative stereo) [Compound 1.78] |  |  |  |  | very good (a very good herbicidal activity is given at values of 90 to 100) | very good (a very good herbicidal activity is given at values of 90 to 100) | very good (a very good herbicidal activity is given at values of 90 to 100) | very good (a very good herbicidal activity is given at values of 90 to 100) | very good (a very good herbicidal activity is given at values of 90 to 100) | very good (a very good herbicidal activity is given at values of 90 to 100) |  |
| COC(=O)C1C=CC(NC(=O)C(C)(C)C(=O)Nc2cccc(I)c2)C1 (centres unmarked) [Compound 1.4] |  |  |  |  | very good (a very good herbicidal activity is given at values of 90 to 100) | very good (a very good herbicidal activity is given at values of 90 to 100) |  |  |  |  |  |
